T1: GST-EVH1 (Falafel Flfl^1-168aa, containing the EVH1 domain) (Drosophila melanogaster) (UniProt Q9VFS5)
T1 sequence: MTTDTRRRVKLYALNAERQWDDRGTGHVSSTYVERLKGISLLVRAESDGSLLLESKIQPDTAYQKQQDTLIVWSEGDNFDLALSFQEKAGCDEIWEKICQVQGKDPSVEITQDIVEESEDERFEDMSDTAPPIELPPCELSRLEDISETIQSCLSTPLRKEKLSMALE

T2: GST-Smk-1 (Falafel Flfl^169-361aa, containing the Smk-1 domain) (Drosophila melanogaster) (UniProt Q9VFS5)
T2 sequence: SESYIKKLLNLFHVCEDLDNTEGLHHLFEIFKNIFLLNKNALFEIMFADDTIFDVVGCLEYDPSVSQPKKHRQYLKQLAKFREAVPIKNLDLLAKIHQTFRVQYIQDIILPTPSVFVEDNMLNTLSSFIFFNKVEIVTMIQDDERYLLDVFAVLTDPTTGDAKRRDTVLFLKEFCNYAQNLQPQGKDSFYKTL

B1: CENP-C, endogenous (protein, UniProt Q9VHP9 1-1411)
chain: MSKPQNNDTLELDDILSQPVKDKERFAAFMMRKLAENKPAQNDNLFGNFKLDFDLDFEVPLIKKSQAKPKSKLPEVQPLGELVSKNSAATEKVNEPPVDQAPNENVPPRRSPTLSPNNRRSMRRSGNVPGSDKLRRHAIRRRSRSCGRQLLPEFEETVNLTRSISSPVNFLPEISSTPCTEKQKEEVAKNTTRVETDKPAEKPMELSQEPEPENPLQTKVTSPARNPILAAEIEQICKERQSSFHKNVLQLDYSGRAPYSRPPTPSSPSVAGLRRTYTMEKGPAPGQLLLSPSHRYDTPSKMPVVKAKRFNQELMVPDTPERQSHDPAWQSEPQPEFVVPETQPQDLGELVQTLSRSAISPIVVINTSNSNRSVRRDAVAMKSVPTSPVTALSSPPIAPSPRRSAAASPQKSIAQLPRVEENMDAIMTDDESDEHPSTVPLNLAPSGGNTTRQRRLRSSNRARATIESQESSMRLLNLHKSVNAKKSKPRKTAIPLNKAPSAPINGEQFARELTRMSNYEILDLRKRNSLNEIYPLNGHRNHRSEKLILEEEIQRELLRRNLMDEAEGLPKQQSSDDSNEDYIPVPPKTQSLRTKSNDRSQGRGRPRSTRRDLPMTTELVNYLGLSQTLETRRKSSKDGKRCLYTKGSSDHEDNDSLSPVKLPRLSKSIQIVPPPPVSLRYSQSLQNLPCSGKFDFDNVVMAAPPDFHDSVNSDAIEIAPPPPEYVVNTRGRSTSGRKSNKNDLVLPPPGYEGGQEEEHDERPSQPRCTAKELQQSTQNGRRAMENELVPPPIEYVEEENRNNEQSRRSTKNGNLVDRNTHNAVEYCEPPEPPEYDDSDHGQASILRRSGKKLQHSKQSVQKSNKEQIIAPSYENNEDYDSDEEPIYNEEYGKEESQNKNVTRRKSDKDEMASHTLECIEGPDPNWNSSCNKQNRNHQNASKSKENDKLANRSSKSQKLSNPRQNAVGTEKSVALSNRGEECTEKSSDVMESLRVNTPTPPIDQNSDDVPSRNPSPSRTLLSDDVPSTSRAALEFLQRSQNMSKSRPPDESSADVVFKKPLAPAPRAKSKKGKSEVDKLKLAKMPVEAEELNTTGIRRSKRGQVPLQMSWCHTMDPSKFNFMSGFIEPRSKNSKTKKGNLSKAKKASATKPKPTVEKNLPDNRGPLCSSTPRISEKLPGAIPHSESLGLSTLTWEETEVQAEAEKVPKKRGRPKKAVGGVQTDTEAEPEPEPEPMISSVAPLTSDQEEPDVPDEQAPYTEAALGPVVFSTPLRDEQEEASTKLMQWLRGVGDAPPSASMSDENASVSSANELIFCQVDGIDYAFYNTKEKAMLGYMRFKPYQKRSMKQAKVHPLKLLVQFGEFNVETLAVGEEKEVHSVLRVGDMIEIDRGTRYSIQNAIDKVSVLMCIRS
B2: Zwilch, endogenous (protein, UniProt Q9VA00 1-641)
chain: MSASANLANVYAELMRRCGESYTITYGAPPTYLVSMVGAAEAGKKIVLVFKEDRNGAVARLRTTPTRAAPKKEGSADLDLTGSPLKDDCLVDAIADLSIDLQLDHSNPWKLEEEYQRGIPVDKARSIVCSEFLQLAEGLGSVWFLCDGSDLGQTQLLQYEFNPTHFSRGILSYQGVRPAYLVTSQALVRHHGKTPDETLIENSYQVNPHMRLRCSWTSSAALPLLVNLNDCDVALNHTFRVGDCGPLTQDFMNQLRILVYIREDIVSYHTDVKQGVSRDPTYRCGSGIDMDELRESINQTMTDVSGLIGRYSISNAEFDIEDVVQRAKVRQLTDLTDKLWELLKCCHSYKDLKIAFSMLFQCAARCNIVNTPTNKNRLAKIITELANRRLAMPCLSGAEPLELLLEIGLEKLYKDYEFIYTESKMCSTNLLKDDSSGASMDDGSPQNLPQLRKSLHNAVRGDPTPGAGMRKTLLHHHGAVNSRSTKYAGSDDDAGFKNSHFDEHESTERISKLFQIHCTLEHLLMMHIHLNLANVYNDVCSELLKKPPKLVESIDDQLSDVMDIRLSAHYVRDHLDGKDPYSRHITMRSHNKFRELKTTFYFNSENICPPNLAQCFQCDDKEMVKERTYHSWIYHKIRSLK
B3: Zw10, endogenous (protein, UniProt Q9W4X9 1-721)
chain: MEEEAPRFNVLEEAFNGNGNGCANVEATQSAILKVLTRVNRFQMRVRKHIEDNYTEFLPNNTSPDIFLEESGSLNREIHDMLENLGSEGLDALDEANVKMAGNGRQLREILLGLGVSEHVLRIDELFQCVEEAKATKDYLVLLDLVGRLRAFIYGDDSVDGDAQVATPEVRRIFKALECYETIKVKYHVQAYMLQQSLQERFDRLVQLQCKSFPTSRCVTLQVSRDQTQLQDIVQALFQEPYNPARLCEFLLDNCIEPVIMRPVMADYSEEADGGTYVRLSLSYATKEPSSAHVRPNYKQVLENLRLLLHTLAGINCSVSRDQHVFGIIGDHVKDKMLKLLVDECLIPAVPESTEEYQTSTLCEDVAQLEQLLVDSFIINPEQDRALGQFVEKYETYYRNRMYRRVLETAREIIQRDLQDMVLVAPNNHSAEVANDPFLFPRCMISKSAQDFVKLMDRILRQPTDKLGDQEADPIAGVISIMLHTYINEVPKVHRKLLESIPQQAVLFHNNCMFFTHWVAQHANKGIESLAALAKTLQATGQQHFRVQVDYQSSILMGIMQEFEFESTHTLGSGPLKLVRQCLRQLELLKNVWANVLPETVYNATFCELINTFVAELIRRVFTLRDISAQMACELSDLIDVVLQRAPTLFREPNEVVQVLSWLKLQQLKAMLNASLMEITELWGDGVGPLTASYKSDEIKHLIRALFQDTDWRAKAITQIV

Results are given in words; binding and its absence hold for the method and conditions named. In cells and extracts the contact can be indirect. A yes stands for co-enrichment or nearness to the bait. Other partners may have been found. Sequences can lack the tags named with a protein.

For one assay, the target named is T1, GST-EVH1 (Falafel Flfl^1-168aa, containing the EVH1 domain) (Drosophila melanogaster). Nature of the assay: affinity purification with mass spectrometry; GST, GST-EVH1 or GST-Smk-1 on beads mixed with whole cell extract of wild-type syncytial embryos in EB buffer, 2 h at 4°C; on-beads trypsin digestion and mass spectrometry; only the target purified.
In the case of Incenp, endogenous, the binding result was “binds”.
Same read-out and setting: next, Miranda, endogenous: “binds”; B1: “binds”.

The next assay has as its target T2, GST-Smk-1 (Falafel Flfl^169-361aa, containing the Smk-1 domain) (Drosophila melanogaster). The description is as above.
Consider Rod, endogenous, for which the binding entry was “binds”.
Still for that read-out and setting: to gamma-tubulin, endogenous belongs “binds”.
On the same count and under the same terms, to “heavy chain of the motor protein dynein, endogenous” belongs “binds”; to B2, “binds”.
On the same count and under the same terms, to B3 belongs “binds”.

The values above are taken from paper PMC7776573.
